Results: patent US7998460B2, “Prevention of deficits in neurogenesis with anti-inflammatory agents” (The Board of Trustees of the Leland Stanford Junior …, priority 2003, dated 2011)
“Also recorded” adds a separate entry of the source. At least one structure is not confirmed: it was looked up by name or label, or the drawing left a doubt.

Columns and labels:
[1] = Sickness behavior and weight loss after LPS in mice; type: in vivo, mouse; conditions: oral NSAID course, LPS 5 mg/kg
Excerpt: LPS-induced transient illness is associated with mild but persistent memory impairment. Hippocampal neurogenesis, a phenomenon that persists throughout life in men and mice alike, has been linked to learning and memory by several groups. Manipulations that chronically deplete hippocampal neurogenesis produce concomitant impairments in cognition, particularly hippocampus-dependent memory. […] To determine whether LPS-induced illness affects learning and/or memory during either the acute recovery phase or in asymptomatic mice, a single 0 or 5 mg/kg injection of LPS was administered with daily subcutaneous saline injections over 4 days to maintain hydration and their behavior examined in locomotor chambers and/or the Morris water maze task either in the week following treatment or beginning 4 weeks after treatment when the decrease in net neurogenesis is most apparent.
Subjects. All mice used as subjects in this study were treated in accordance with the policies set forth by the Stanford Animal Care and Use Committee and NIH regarding the ethical use of animals for experimentation. CB57BI/6 mice (7 wks old upon arrival from -Taconic) were housed in groups of 4-5 in autoclaved shoebox cages under standard conditions and were given free access to autoclaved Prolab Mouse 3000 chow (PMI Nutrition International, St. Louis, Mo.) and autoclaved tap water. […]

C57BI/6 mice = assay: Locomotor chambers and Morris water maze after LPS in mice; type: in vivo, mouse; conditions: oral NSAID course, LPS 5 mg/kg, training from Day 28
Description: Behavioral testing. Locomotor activity was measured in 17×17 inch chambers lined with three 16-beam infrared arrays in photocell boxes (MED Associates, Inc., St. Albans, Vt.). The mice were placed into the chambers and their locomotor activity was recorded for 20 minutes 4 days after LPS was injected (on Day 4). A 50 msec scanning rate was used for measuring beams broken. Distance traveled was analyzed for estimates of locomotion based on the movement of a given distance and resting delay (movement in a given period) using Open Field Activity software (MED Associates, Inc., St. Albans, Vt.).
Hippocampus-dependent learning and memory was assessed in the standard Morris water maze task. All hippocampus-dependent training and testing was conducted in a black circular tank (170 cm diameter×43 cm height) filled water made opaque using white non-toxic Tempra paint (Rich Art Color Co. Inc, Northvale, Calif.; training and testing). A platform (13 cm diameter×28.5 cm height) was hidden 1 cm below the water surface for platform shaping and training trials. Time and distance traveled in the pool was recorded using Videotrack Automated Behavioral Analysis System (Viewpoint Life Sciences Inc., Otterburn Park, Quebec).
Platform shaping began three days before platform training (Days 25-27). […]
[…] Pathlength and latency were analyzed as measures of learning, swim speed was analyzed as a measure of sensorimotor ability and % time spent in outer annulus was analyzed as a measure of anxiety.
Probe Trial Testing was conducted at 1 week after mice reached criterion in the platform training phase of the experiment. […] Percent time and distance spent in each quadrant were analyzed as measures of memory, swim speed and total distance swum were analyzed as measures of sensorimotor ability and % time and distance spent in the outer annulus were analyzed as measures of anxiety. […] Reversal and visible platform trial performance was scored identically to platform training performance.

Cc1ccc(-c2cc(C(F)(F)F)nn2-c2ccc(S(N)(=O)=O)cc2)cc1 [Celebrex, celecoxib]
effect of NSAID on LPS-induced sickness behavior and weight loss [1]: not significantly attenuated; also recorded: not significantly affected
effect of NSAID on LPS-induced impairment of probe trial performance (C57BI/6 mice): no significant beneficial effect on restoring memory

CN(CCOc1ccc(CC2SC(=O)NC2=O)cc1)c1ccccn1 (centres unmarked) [rosiglitazone]
effect of NSAID on LPS-induced sickness behavior and weight loss ([1]; listed as rosiglitizone): not significantly attenuated; also recorded: not significantly affected
effect of NSAID on LPS-induced impairment of probe trial performance (C57BI/6 mice): reversed the effects of LPS on probe trial performance
effect of NSAID on LPS-induced impairment of probe trial performance (C57BI/6 mice; listed as rosiglitizone): fully protected
